The results in this text go back to article PMC3734102.

The chains behind the UniProt entries cited, without tags or fusion partners. Where a name states a change or a piece, a line headed by the entry shows the natural chain unless it says otherwise.
UniProt P50082: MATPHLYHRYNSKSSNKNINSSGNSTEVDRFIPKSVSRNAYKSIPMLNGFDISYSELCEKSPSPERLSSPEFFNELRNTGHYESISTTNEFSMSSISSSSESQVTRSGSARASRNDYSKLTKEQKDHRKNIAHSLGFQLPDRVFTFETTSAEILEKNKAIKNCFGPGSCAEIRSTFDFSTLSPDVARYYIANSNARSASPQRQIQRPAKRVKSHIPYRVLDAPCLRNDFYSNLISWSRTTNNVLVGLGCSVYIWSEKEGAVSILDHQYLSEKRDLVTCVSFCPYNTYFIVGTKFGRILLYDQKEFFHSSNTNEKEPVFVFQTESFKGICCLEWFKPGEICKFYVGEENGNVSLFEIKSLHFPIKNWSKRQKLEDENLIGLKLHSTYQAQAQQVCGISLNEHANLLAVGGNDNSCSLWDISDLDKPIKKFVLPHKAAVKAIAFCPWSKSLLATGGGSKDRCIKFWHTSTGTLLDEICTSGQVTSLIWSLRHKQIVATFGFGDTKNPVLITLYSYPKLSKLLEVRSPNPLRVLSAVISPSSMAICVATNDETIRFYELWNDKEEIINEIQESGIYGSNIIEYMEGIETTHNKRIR

Results are given in words; binding and its absence hold for the method and conditions named. Binding seen in cells or lysates may run through a third protein. A result given as binding can be weak or reduced; the word gives no strength. Sequences can lack the tags named with a protein.

The target in assay [1] is T1, Cdc27p-9myc (S. cerevisiae) (UniProt P38042).
T1 sequence: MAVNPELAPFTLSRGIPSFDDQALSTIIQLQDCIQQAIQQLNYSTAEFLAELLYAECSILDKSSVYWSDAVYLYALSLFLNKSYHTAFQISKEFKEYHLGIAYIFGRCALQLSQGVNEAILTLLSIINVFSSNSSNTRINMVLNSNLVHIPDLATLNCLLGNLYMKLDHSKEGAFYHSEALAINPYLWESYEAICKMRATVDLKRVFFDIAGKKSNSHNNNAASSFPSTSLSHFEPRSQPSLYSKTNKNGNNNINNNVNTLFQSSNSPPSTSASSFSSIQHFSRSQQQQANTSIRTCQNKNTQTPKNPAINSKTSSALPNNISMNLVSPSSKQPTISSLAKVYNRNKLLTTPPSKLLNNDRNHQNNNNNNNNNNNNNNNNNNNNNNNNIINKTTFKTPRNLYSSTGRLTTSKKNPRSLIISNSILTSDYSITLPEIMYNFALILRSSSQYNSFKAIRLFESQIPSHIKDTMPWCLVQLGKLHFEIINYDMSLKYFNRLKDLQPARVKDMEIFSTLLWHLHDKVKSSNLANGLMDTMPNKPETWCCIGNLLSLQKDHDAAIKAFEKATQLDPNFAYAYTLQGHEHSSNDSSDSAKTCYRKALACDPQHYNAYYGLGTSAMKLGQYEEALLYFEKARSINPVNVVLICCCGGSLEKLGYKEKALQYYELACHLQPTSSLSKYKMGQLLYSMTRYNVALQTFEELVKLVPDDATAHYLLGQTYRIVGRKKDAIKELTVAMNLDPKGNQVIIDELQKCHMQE
The assay is described as follows: co-IP; Cdc27-9myc strain KCY328 with Ama1p-T7 plasmids, cells harvested 12 h after transfer to sporulation medium (meiosis); 1 mg soluble protein; immunoprecipitation and immunoblot; which protein was precipitated is not told. (In general: A western blot detects proteins with antibodies after separation by electrophoresis.)

For assay [2], the target named is T1, Cdc27p-9myc (S. cerevisiae). The assay can be described thus: co-IP; Cdc27-9myc strain RSY1337 with GST or GST-Ama1p fusion plasmids, grown in raffinose/galactose medium to induce the fusion genes; 1 mg soluble protein; immunoprecipitation and immunoblot, with a no-antibody mock immunoprecipitation.

As for Ama1p^CB∆-T7 (from UniProt P50082), the binding result in assay [1] was “binds”.
Same read-out and setting: then Ama1p^IR∆-T7 (from UniProt P50082), with “binds”; and Ama1p^CB∆/IR∆-T7 (from UniProt P50082), with “binds weakly”.
Take “GST-Ama1p^1-200CB∆ (from UniProt P50082) (domain or fragment)”: in assay [2], the binding result is given as “binds”.
